Data from PubChem BioAssay AID493014 (National Center for Advancing Translational Sciences (NCATS), 2011).
The other results are listed elsewhere or left out. These are further read-outs of the screen, such as a control signal, another cell line or another target. No call is given for them. Compounds called inactive in the main read-out are mostly missing here. Words in brackets tell the shape of the fitted curve; partial curves, single points and poor fits give uncertain potencies.

Test: qHTS Assay to Find Inhibitors of Chronic Active B-Cell Receptor Signaling
Conditions: ABC-DLBCL IkBa-CBG/CBR reporter, luminescence ratio (green luciferase fused to IkBa over red control in TMD8 lymphoma cells), 4 h
Summary of the method: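 Compounds up to 46 uM were incubated four hours with TMD8 cells whose green CBG68 luciferase is fused to IkappaBalpha; red CBR luminescence normalised the signal, and concentration-effect curves were fitted to fusion, red and ratio data.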

[1] = measured here: CBR red luminescence, cell number
[2] = measured here: IkBa-CBG green luminescence

Row | SMILES | AC50 [1] | AC50 [2]
1 | COc1cc(NC(=O)c2cc(Cl)nnc2Cl)cc(OC)c1OC | 17.8 µM [falling, single point] | 
2 | Brc1cc(Br)c2nc(-c3ccc(N4CCOCC4)cc3)ccc2c1 | 14.6 µM [rising, partial curve, poor fit] | 
3 | O=C(COc1ccccc1)N=C1SC2CS(=O)(=O)CC2N1c1cccc(F)c1 (stereo not drawn) | 0.316 µM [rising, full curve, poor fit] | 
4 | c1ccc2c(N3CCCCC3)nnc(N3CCCCC3)c2c1 | 18.4 µM [rising, single point] | 
5 | Cc1ccc2c(c1)c(C)c(C)n2CC(O)Cn1nnc2ccccc21 (stereo not drawn) | 17.8 µM [falling, partial curve, poor fit] | 
6 | CCOc1ncccc1C(=O)Nc1cccc(S(=O)(=O)NC2=NCCC2)c1 | 1.46 µM [falling, partial curve] | 
7 | Cc1nc(-c2ccc(C(=O)Nc3cccc(Br)c3)cc2)cs1 | 35.5 µM [falling, single point] | 
8 | C=C1CCN([C@H](C(=O)NCc2ccc(Cl)c(Cl)c2)C(C)C)S(=O)(=O)c2ccccc21 | 6.31 µM [falling, full curve] | 
9 | O=C1NC[C@@H](Cc2ccc(O)cc2)N(CC2CCCCC2)C1=O | 22.4 µM [rising, single point] | 
10 | CCOC(=O)CSc1nnc(NC(=O)CN2CCN(C=O)CC2)s1 | 4.47 µM [falling, full curve, poor fit] | 
11 | Cn1cccc1C(=O)NC(=O)COC(=O)c1ccc(S(C)(=O)=O)c([N+](=O)[O-])c1 | 16.4 µM [falling, partial curve] | 
12 | CC(=O)NC(Cc1ccccc1C)C(=O)NC1CCN(C(=O)NCc2ccccc2)CC1 (stereo not drawn) | 31.6 µM [rising, single point] | 
13 | CCn1c(SCC(=O)Nc2ccc(C(C)=O)cc2)nc2ccccc21 | 20.6 µM [rising, single point] | 
14 | COc1ccc(NC(C)=O)cc1S(=O)(=O)N(C)Cc1c(C)nn(-c2ccccc2)c1C | 29.1 µM [rising, single point] | 
15 | COCCOC(=O)C1=C(C)N=c2s/c(=C\c3cccs3)c(=O)n2C1c1cccs1 (stereo not drawn) | 0.517 µM [falling, partial curve, poor fit] | 
16 | CC(=O)c1cccc(NC(=S)NCCc2ccc(Cl)cc2)c1 | 10 µM [falling, partial curve] | 
17 | Cc1ccc(O)c(C(=O)c2cc(C#N)c(=O)n(-c3nccs3)c2)c1 | 3.98 µM [falling, full curve, poor fit] | 
18 | Cc1ccc2c(c1)/C(=C/c1ccccc1)C(=O)N2 | 12.6 µM [falling, partial curve, poor fit] | 
19 | O=C(CCc1c[nH]c2ccccc12)NCCc1ccccc1 | 0.562 µM [rising, full curve, poor fit] | 
20 | CCSc1nnc(NC(=O)c2cccnc2)s1 | 14.6 µM [falling, partial curve] | 
21 | O=C(Nc1cccc2cccnc12)C1CCCC1 | 3.26 µM [rising, full curve, poor fit] | 
22 | O=C(NCCCN1CCOCC1)c1cc(-c2ccc(F)cc2)on1 | 0.794 µM [falling, full curve, poor fit] | 

Row | SMILES | AC50 [1] | AC50 [2]
23 | O=C(N/N=C/c1cccs1)c1cccc2cc[nH]c12 | 5.01 µM [falling, partial curve] | 
24 | O=C(N/N=C/c1ccc(-c2ccccc2Cl)o1)c1ccccc1 | 35.5 µM [falling, single point] | 
25 | COc1ccc(C(=O)NC(=S)Nc2ccc(N3CCOCC3)c(Cl)c2)cc1[N+](=O)[O-] | 7.31 µM [rising, partial curve] | 
26 | CCC(=O)Nc1ccc(Cl)c(NC(=S)NC(=O)COc2ccccc2)c1 | 10.3 µM [rising, partial curve, poor fit] | 
27 | c1ccc2[nH]c(NN=C3CCCCCC3)nc2c1 | 35.5 µM [falling, single point] | 
28 | O=C1NN(c2ccccc2)C(=O)/C1=C\c1ccc(-c2cc([N+](=O)[O-])ccc2O)o1 | 12.6 µM [falling, partial curve, poor fit] | 
29 | O=S(=O)(c1cccs1)N1CCN(CC(O)COc2cccc(Br)c2)CC1 (stereo not drawn) | 0.651 µM [rising, partial curve, poor fit] | 
30 | COc1ccc(OC)c(C2NC(=O)NC(C)=C2C(=O)OC2CCCCC2)c1 (stereo not drawn) | 6.31 µM [rising, partial curve, poor fit] | 
31 | COc1cccc(C(=O)OC2CCCN(C)C2)c1 (stereo not drawn) | 29.1 µM [falling, single point] | 
32 | Cc1cc(C)nc(SCc2nnc(SCC(=O)N3CCOCC3)o2)n1 | 35.5 µM [rising, single point] | 
33 | COc1ccccc1C(=O)N/N=C(\C)CC(=O)Nc1ccccc1NC(C)=O | 0.794 µM [falling, full curve, poor fit] | 
34 | Cc1c(CN(C)Cc2cn(C)nc2-c2ccccc2F)[nH]c2ccccc12 | 12.6 µM [falling, single point] | 
35 | Clc1ccc(SCc2cn3ccsc3n2)cc1 | 0.501 µM [rising, full curve, poor fit] | 
36 | Cc1c(C(=O)OCc2ccccc2)nnn1-c1nonc1N | 7.08 µM [rising, full curve, poor fit] | 
37 | Cc1ccc(-c2ccc(C(=O)NCc3ccc(Cl)cc3)o2)c2ccccc12 | 2.31 µM [falling, partial curve] | 
38 | CCOC(=O)N1CCN(Cc2nc(N)nc(Nc3ccc(Oc4ccccc4)cc3)n2)CC1 | 14.6 µM [falling, partial curve, poor fit] | 29.1 µM [falling, single point]
39 | N#Cc1ccc(C(=O)NC23CC4CC(CC(C4)C2)C3)cc1 | 7.08 µM [rising, partial curve, poor fit] | 
40 | CSc1ccc(C2C(C#N)=C(N)Oc3c2ccc(=O)c2c(C)oc(C)c32)cc1 (stereo not drawn) | 16.4 µM [rising, single point] | 
41 | Cc1nc(NC(=S)NC(=O)COc2ccccc2Cl)ccc1Br | 29.1 µM [rising, partial curve, poor fit] | 
42 | O=C(NC(=S)Nc1ccc(Br)cn1)c1cccnc1 | 3.98 µM [rising, full curve, poor fit] | 
43 | O=C(NNC(=S)NCC1CCCO1)c1ccc(S(=O)(=O)N2CCOCC2)cc1 (stereo not drawn) | 20 µM [rising, single point] | 
44 | CN(C)/C=C1/Nc2ccccc2C1=O | 8.2 µM [falling, partial curve, poor fit] | 

Row | SMILES | AC50 [1] | AC50 [2]
45 | CCCc1cc(C(=O)NCC(C)C)no1 | 25.1 µM [falling, single point] | 
46 | COc1ccc(/C=N/NC(=O)c2cc3c(OC)ccc(OC)c3[nH]2)cc1O | 5.01 µM [rising, partial curve] | 2.24 µM [falling, full curve]
47 | CSc1ccc(C(=S)N2CCN(Cc3ccccc3)CC2)cc1 | 0.82 µM [falling, full curve, poor fit] | 
48 | CC1CCCCC12NC(=S)N(c1ccccc1)N2 (stereo not drawn) | 4.47 µM [rising, single point] | 
49 | Cc1cc([N+](=O)[O-])nn1Cc1ccc(C(=O)N/N=C/c2ccc(O)cc2O)cc1 | 23.1 µM [falling, partial curve] | 
50 | COc1cccc(OC)c1OC(=O)/C=C/c1ccc(C)o1 | 15.8 µM [rising, partial curve] | 
51 | O=C(CCc1ccccc1)NNC(=O)c1ccccc1C(=O)O | 29.1 µM [rising, single point] | 
52 | COc1ccc(C2C(C#N)=C(N)SC(N)=C2C#N)cc1OC | 0.731 µM [falling, full curve, poor fit] | 
53 | COC1CCN(Cc2c(C(=O)N3CCc4ccccc4C3)nc3ccc(Cl)cn23)CC1 | 3.98 µM [rising, partial curve, poor fit] | 
54 | CCc1nc(Nc2ccc(OC)c(OC)c2)c2nnn(Cc3ccccc3Cl)c2n1 | 7.31 µM [falling, partial curve, poor fit] | 
55 | CCNc1nc(NCC)nc(Oc2ccc(N)cc2)n1 | 29.1 µM [rising, single point] | 
56 | CCCC1=NN(C(=O)C(=O)Nc2ccc(Br)cc2)C(O)(C(F)(F)F)C1 (stereo not drawn) | 10 µM [falling, partial curve, poor fit] | 
57 | Cc1ccc(C)c(CN2C(=O)c3ccccc3S(=O)c3ccc(C(=O)NCCCN4CCCC4)cc32)c1 (stereo not drawn) | 7.08 µM [falling, partial curve, poor fit] | 
58 | CC(C)N1C(=O)/C(=C/c2nc3ccccc3c(=O)n2-c2ccccc2)c2ccccc21 | 0.116 µM [falling, full curve, poor fit] | 9.2 µM [falling, partial curve]
59 | Cc1ccc(C2=NN(C(=O)CCl)C(c3cccs3)C2)o1 (stereo not drawn) | 6.51 µM [falling, partial curve] | 
60 | Cc1cc(/C=C2/NC(=O)NC2=O)c(C)n1-c1ccc(C#N)cc1 | 17.8 µM [rising, single point] | 
61 | Cc1nn(C)c(=O)n1-c1ccc(Oc2ccccc2)cc1 | 29.1 µM [rising, single point] | 
62 | CCOC(=O)N1CC=C2C(C#N)=C(N)C(C#N)(C#N)[C@H](c3cccs3)C2C1 (stereo partly drawn) | 14.6 µM [falling, single point] | 
63 | c1csc(-c2nc(NCCCN3CCOCC3)c3ccccc3n2)c1 | 35.5 µM [falling, single point] | 
64 | c1ccc(CNc2nc(NCc3ccco3)nc(N3CCOCC3)n2)cc1 | 1.26 µM [rising, partial curve, poor fit] | 11.2 µM [falling, partial curve, poor fit]

Complete entries, quoted from the list:
CCCC1=NN(C(=O)C(=O)Nc2ccc(Br)cc2)C(O)(C(F)(F)F)C1 (stereo not drawn) as listed: AC50 [1]: 10 µM [falling, partial curve, poor fit]
Cc1cc(/C=C2/NC(=O)NC2=O)c(C)n1-c1ccc(C#N)cc1 as listed: AC50 [1]: 17.8 µM [rising, single point]
COC1CCN(Cc2c(C(=O)N3CCc4ccccc4C3)nc3ccc(Cl)cn23)CC1 as listed: AC50 [1]: 3.98 µM [rising, partial curve, poor fit]
